This is an account of results in US20260209347A1 (BIORAY PHARMACEUTICAL, published 2026).

Sequences of proteins named here, by UniProt entry; tags and fusion partners are left off. A change or cut given only in a name is not applied to a line headed by its entry.
UniProt P26715: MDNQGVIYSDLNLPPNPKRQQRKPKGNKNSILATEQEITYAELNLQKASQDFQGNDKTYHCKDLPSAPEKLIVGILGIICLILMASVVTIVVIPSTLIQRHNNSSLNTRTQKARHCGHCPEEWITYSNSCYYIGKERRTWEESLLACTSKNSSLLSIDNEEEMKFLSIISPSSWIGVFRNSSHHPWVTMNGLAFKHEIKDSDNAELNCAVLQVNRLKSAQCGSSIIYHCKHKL
UniProt Q13241: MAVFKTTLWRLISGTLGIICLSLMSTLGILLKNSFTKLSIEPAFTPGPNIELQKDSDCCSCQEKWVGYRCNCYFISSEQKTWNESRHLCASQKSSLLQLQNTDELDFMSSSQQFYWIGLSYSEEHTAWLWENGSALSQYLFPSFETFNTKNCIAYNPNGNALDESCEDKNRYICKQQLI

The chains are these.
B1: hu-52VH-13/VL-11 (antibody, human IgG4 S228P, kappa, V domains shown)
VH: QVQLVQSGAEVKKPGASVKVSCKASGFNIQNTYLHWVRQAPGQGLEWMGRIDPANDNIKYVPKFQGRVTMTADTSTNTAYMELSSLRSEDTAVYYCTRHGLFYEGWFAYWGQGTLVTVSS
VL: DIQLTQSPSSLSASVGDRVTITCSVSSSISSSNLHWYQQKPGKAPKPLIYGTSNLASGVPSRFSGSGSGTDYTLTISSLQPEDAATYYCQQWSSYPYTFGQGTKLEIKR
notes: full-length humanized antibody; also called hu-52 humanized antibody
B2: hu-52VH-13/VL-31 (antibody, human IgG4 S228P, kappa, V domains shown)
VH: B1 VH
VL: EIVLTQSPATLSLSPGERATLSCSVSSSISSSNLHWYQQKPGQAPRPLIYGTSNLASGIPARFSGSGSGTDYTLTISSLEPEDAAVYYCQQWSSYPYTFGQGTKLEIKR
notes: as for B1
B3: hu-52VH-13/VL-21 (antibody, human IgG4 S228P, kappa, V domains shown)
VH: B1 VH
VL: B1 VL with S10T, D71E, E82D
notes: as for B1
B4: hu-52VH-33/VL-21 (antibody, human IgG4 S228P, kappa, V domains shown)
VH: B1 VH with A16S, M70I
VL: B1 VL with S10T, D71E, E82D
notes: as for B1
B5: hu-52VH-23/VL-31 (antibody, human IgG4 S228P, kappa, V domains shown)
VH: B1 VH with T76I, S85R, E89D
VL: B2 VL
notes: as for B1
B6: hu-52VH-23/VL-21 (antibody, human IgG4 S228P, kappa, V domains shown)
VH: B1 VH with T76I, S85R, E89D
VL: B1 VL with S10T, D71E, E82D
notes: as for B1
B7: hu-52VH-23/VL-11 (antibody, human IgG4 S228P, kappa, V domains shown)
VH: B1 VH with T76I, S85R, E89D
VL: B1 VL
notes: as for B1
B8: cAb-43 (antibody, human IgG4 S228P, kappa, V domains shown)
VH: EVQLQQSVAELVRPGASVKLSCTASGFNIQNTYIHWVKQRPEQGLEWIGRIDPASGSTEYAPKFQGKATITADTSSNSGYLQLSSLTSEDTAIYYCARYGNFLYYYSMDYWGQGTSVTVSA
VL: DIVMTQAAPSVPVTPGESVSISCRSNKSLLHSNGNTYLYWFLQRPGQSPQLLIYRMSNLASGVPDRFSGSGSGTAFTLRISRVEAEDVGVYYCMQHLENPYTFGGGTKLEIKR
notes: human-mouse chimeric antibody, human IgG4 constant region; also called antibody number 43; NKG2A chimeric antibody
B9: cAb-9 (antibody, human IgG4 S228P, kappa, V domains shown)
VH: EVQLQQSVAELVRPGASVKLSCTASGFNIQNTYMHWVKERPEQGLEWIGRIDPANGDTEFAPKFQGKATLTTDTSSNTAYLQLSSLTSEDTAIYYCGRERYFYGSRGFAYWGQGTLVTVSA
VL: DILMTQSPPSMSVSLGDTVSITCHASQGISSNIGWLQQKPGKSFKGLIYHGTNLEDGVPSRFSGSGSGADYSLTISSLESEDFADYYCVQYAQFPWTFGGGTKLEIKR
notes: human-mouse chimeric antibody, human IgG4 constant region; also called antibody number 9; NKG2A chimeric antibody
B10: cAb-52 (antibody, human IgG4 S228P, kappa, V domains shown)
VH: EVQLQQSVAELVRPGASVKLSCTASGFNIQNTYLHWVKQRPEQGLEWIGRIDPANDNIKYVPKFQGKATITADTSSNTAYLQLSSLTSEDTAIYYCTRHGLFYEGWFAYWGQGTLVTVST
VL: EIVLTQSPALMAASPGEKVTITCSVSSSISSSNLHWYQQKSGTSPKPWIYGTSNLASGVPVRFSGSGSGTSYSLTISSMEAEDAATYYCQQWSSYPYTFGSGTKLEIKR
notes: human-mouse chimeric antibody, human IgG4 constant region; also called antibody number 52; NKG2A chimeric antibody
B11: cAb-17 (antibody, human IgG4 S228P, kappa, V domains shown)
VH: EVQLQQSVAELVRPGASVKLSCTASGFNIKNTYIDWVKQRPEQGLEWIGNIDPANGNTKYAPKFQGKATITADTSSNTAYVQLSSLTSEDTAIYYCARWGGWDVRFAYWGQGTLVTVSA
VL: DIKMTQSPSSMYASLGERVTITCKASQDINTYLSWFQQKPGKSPKTLIYRANRLVDGVPSRFSGSGSGQNYSLTISSLEYEDMGIYYCLQYDEFPLTFGAGTKLELKR
notes: human-mouse chimeric antibody, human IgG4 constant region; also called antibody number 17; NKG2A chimeric antibody
B12: cAb-24 (antibody, human IgG4 S228P, kappa, V domains shown)
VH: EVQLQQSVAELVRPGASVKLSCTASGFNIQNTYMHWVKQRPEQGLEWIGRIDPANGNTKYAPKFQGKATITADTSSNTAYLQLSSLTSEDTAIYYCARYYDSRYGYWGQGTTLTVSS
VL: B11 VL with T31S, K45T, N70D, M83L, Y87F, L96W, A100G, L106I
notes: human-mouse chimeric antibody, human IgG4 constant region; also called antibody number 24; NKG2A chimeric antibody
B13: cAb-33 (antibody, human IgG4 S228P, kappa, V domains shown)
VH: B11 VH with I34M, N50R, V81L, W99E, G101N, V104D, R105W, A107V
VL: DVLMTQTPLSLPVSLGDQASISCRSSQSIVHSNGNTYLEWFLQKPGQSPKLLIYKVSNRFSGVPDRFSGSGSGTDFTLKISRVEAEDLGVYYCFQGSHVPPTFGGGTKLEIKR
notes: human-mouse chimeric antibody, human IgG4 constant region; also called antibody number 33; NKG2A chimeric antibody
B14: cAb-35 (antibody, human IgG4 S228P, kappa, V domains shown)
VH: B11 VH with I34M, N50R, Y60H, A72T, V81L
VL: B11 VL with T22N, K24Q, T31S, Y49H, N70D, Y91F
notes: human-mouse chimeric antibody, human IgG4 constant region; also called antibody number 35; NKG2A chimeric antibody
B15: cAb-14 (antibody, human IgG4 S228P, kappa, V domains shown)
VH: EVQLQQSVAELVRPGASVKLSCTASGFNIKNTYIHWVKQRPEQGLEWIGRIDPANGNTKYAPKFQGKASIIVDTSSNTAYLQLSSLTSEDTAIYYCARYYASSPYYYNMDYWGQGTSVTVSS
VL: DIQMTQSPASLSVSVGETVTITCRASENIYSNLAWYQQKQGKSPQLLVYAATNLADGVPSRFSGSGSGTQYSLKINSLQSEDFGSYYCQHFWGTFTFGSGTKLEIKR
notes: human-mouse chimeric antibody, human IgG4 constant region; also called antibody number 14; NKG2A chimeric antibody

Where a chain is given by its changes, count along the chain named. Results are given in words; binding and its absence hold for the method and conditions named. Some results given as binding are weak or reduced against the parent protein; the word gives no strength.

One assay has as its target human NKG2A/CD94 on cells (CHOK1-hNKG2A/CD94) (human) (UniProt P26715+Q13241). Nature of the assay: FACS on human NKG2A overexpressing cell line.
In the case of B1, the binding result is “binds”.
On the same count and under the same terms, the value for B2 was “binds”.
On to B3, for which the binding entry was “binds”.
On to B4, for which the binding result was “binds”.
With B5, the binding entry is on record as “binds”.
With B6, the binding result is listed as “binds”.
As for B7, the binding result is recorded as “binds”.

The next assay addresses T1, cyno NKG2A/CD94 on cells (CHOK1-cynoNKG2A/CD94) (cyno (Macaca fascicularis)) (UniProt Q68VD2+Q68VD4). Nature of the assay: FACS on cyno NKG2A overexpressing cells.
For the molecule B8, the binding entry is “binds”.

The target in another assay is T1, cyno NKG2A/CD94 on cells (CHOK1-cynoNKG2A/CD94) (cyno (Macaca fascicularis)). Nature of the assay: FACS on CHOK1-cynoNKG2A/CD94 cells.
In the case of B9, the binding entry was “binds”.
Still for that read-out and setting: the value for B10 was “binds”; that for B8 was “binds”.
Take B11: the binding entry is reported as “binds”.
With B12, the binding entry was “binds”.
Still for that read-out and setting: the result for B13 reads “binds”; that for B14, “binds”.
On to B15, for which the binding entry was “binds”.
